Source: the supplement of paper PMC6445147
This is a noisy data set.

B1: human tRNA-Pro; a variant is named by its letters at N, in order (parent)
chain: GGCTCGTTGGTCTAGNGGTATGATTCTCGCTTAGGGTGCGAGAGGTCCCGGGTTCNNATCCCGGACGAGCCC

Key:
[1] = variants of: B1; assay: tRNA 3' processing efficiency (processed reads / all reads, maximum-likelihood estimate) (fraction); higher = more efficient 3' processing; details: HEK293T; construct: no Pol-II promoter ((-)CMV library)
[2] = variants of: B1; assay: tRNA Pol-III promoter activity, log2 (circRNA frequency / plasmid DNA frequency) (log2 ratio); higher = stronger promoter activity; details: HEK293T; construct: no Pol-II promoter ((-)CMV library)
[3] = variants of: B1; assay: tRNA 5' processing efficiency (processed reads / all reads, maximum-likelihood estimate) (fraction); higher = more efficient 5' processing; details: HEK293T; construct: CMV Pol-II promoter ((+)CMV library, decapped)

| Variant | tRNA 3' processing efficiency [1] | tRNA Pol-III promoter activity (log2) [2] | tRNA 5' processing efficiency [3] |
| --- | --- | --- | --- |
| CAA A14G T19C T53A | 0.5 | – | – |
| ATA T19A | 0.19 | 3.87 | – |
| ATA T19G | 0.14 | 3.93 | – |
| ATA T19C | 0.26 | 4.55 | – |
| CAA A14G G18A T19G A20T G29A A58T T59A | 0.4 | – | – |
| GTA T19G T59G | 0.57 | 5.33 | – |
| GTA T19G T59A | 0.6 | 4.44 | – |
| GAA A14G G15C G18C A58T | 0.25 | – | – |
| TAA A14T G15C T59A | 0.25 | – | – |
| GTG G18T | 0.4 | 3.26 | – |
| GTG G18A | 0.25 | 2.57 | – |
| TTA T19G | 0.42 | 3.35 | – |
| TTA T19A | 0.42 | 3.63 | – |
| GTA T19A A20T C55G | 0.25 | 3.36 | – |
| GAA A14C T46A | 0.11 | – | – |
| GTT A14T T59C | 0.25 | 4.45 | – |
| GAA A14G G15T G50A | 0.29 | – | – |
| AAA A14T A20C T53C T59C | 0.25 | – | – |
| GAA A14C G50A T53A T59C | 0.25 | – | – |
| GTA T19C T54G | 0.4 | 4.77 | – |
| GTA T19A A20T A58C | 0.22 | 4.1 | – |
| GTA T19A A20T A58G | 0.11 | 7.1 | – |

| Variant | tRNA 3' processing efficiency [1] | tRNA Pol-III promoter activity (log2) [2] | tRNA 5' processing efficiency [3] |
| --- | --- | --- | --- |
| GTG A14G A58T | 0.2 | 4.77 | – |
| GTG A14G A58G | 0.25 | 3.93 | – |
| CTC | 0.25 | 5.16 | – |
| CTT | 0.19 | 4.05 | – |
| CAA A14G G15T T59G | 0.2 | – | – |
| GTA T8G T59G | 0.25 | 1.77 | – |
| TTA T19G A20T G35A | 0.25 | 3.71 | – |
| GAA A14G G15A A58G T59G | 0.25 | – | – |
| AAA A14T A20T G51A | 0.17 | – | – |
| TTG G15T T19G | 0.41 | 6.44 | – |
| GAA A14T A33G A58C | 0.4 | – | – |
| GAA A14C T53A A58C T59G | 0.4 | – | – |
| GTG G17T | 0.22 | 2.45 | – |
| GTT T19A | 0.13 | 3.13 | – |
| GTT T19G | 0.09 | 4.47 | – |
| ATA T53G T54C | 0.4 | 6.26 | – |
| GTC T19G | 0.24 | 4.88 | – |
| GTC T19A | 0.5 | 3.93 | – |
| GTA T8G G17T | 0.2 | 2.66 | – |
| CAA A14T T19G A20T A58G | 0.17 | – | – |
| GTT A14C A58T | 0.25 | 3.93 | – |
| TAA A20G A58C T59G | 0.5 | – | – |

| Variant | tRNA 3' processing efficiency [1] | tRNA Pol-III promoter activity (log2) [2] | tRNA 5' processing efficiency [3] |
| --- | --- | --- | --- |
| GAA A14C T19C T54A | 0.25 | – | – |
| GAA A14C G50A | 0.44 | – | – |
| GAA A14T G18T T19C A58C T59G | 0.33 | – | – |
| GTC G9A | 0.14 | 6.84 | – |
| GTC G9T | 0.25 | 1.3 | – |
| TTG A14G | 0.51 | 7.62 | – |
| CAA A14C C55T A58G | 0.33 | – | – |
| TTC T8A A58G | 0.22 | 6.53 | – |
| GTT G9A T59G | 0.2 | 4.67 | – |
| GAA A14G G15C T19G A58C T59C | 0.62 | – | – |
| TAA A14T T19G A58G | 0.33 | – | – |
| GTT T8A G15T | 0.62 | 5.03 | – |
| AAA A14T T19A T53A | 0.13 | – | – |
| CAA A14G T19A A20C T59G | 0.5 | – | – |
| GAA A14C T19A T53A | 0.5 | – | – |
| GAA A14C T19C T53A A58G | 0.43 | – | – |
| GTA T19C A20G A58G | 0.2 | 4.67 | – |
| GAA A14T G52C T53C | 0.4 | – | – |
| GTC G9A T54A | 0.5 | 4.3 | – |
| GTT T53G | 0.25 | 5.03 | – |
| TTA T54A | 0.17 | 3.51 | – |
| TAA A14T A20G A58T | 0.4 | – | – |

| Variant | tRNA 3' processing efficiency [1] | tRNA Pol-III promoter activity (log2) [2] | tRNA 5' processing efficiency [3] |
| --- | --- | --- | --- |
| ATA T54A | 0.4 | 3.36 | – |
| TTT A20C | 0.34 | 8.28 | – |
| ATA T59A | 0.18 | 4.82 | – |
| ATA T59C | 0.33 | 3.81 | – |
| ATA T59G | 0.21 | 3.28 | – |
| GAA A14C T19A A20C T53A | 0.14 | – | – |
| AAA A14T A58T T59A | 0.57 | – | – |
| GTT C55A | 0.4 | 1.62 | – |
| TTA T19G T59G | 0.25 | 5.93 | – |
| GAA A14G T19G G22A A58T | 0.4 | – | – |
| GTA T19A A20C A58T | 0.33 | 3.36 | – |
| TTG A58C | 0.2 | 6.25 | – |
| TTG A58T | 0.1 | 7.26 | – |
| GAA A14C G17C T53A A58G | 0.17 | – | – |
| GAA A14G G50A | 0.4 | – | – |
| GTC G17T | 0.57 | 2.75 | 0.25 |
| GTC G17C | 0.2 | 2.36 | – |
| CAA A14T T19G T59C | 0.57 | – | – |
| GTA T19C | 0.17 | 1.31 | 0.2 |
| GTA T19G | 0.33 | 1.3 | – |
| GTA T19A | 0.26 | 2.28 | 0.5 |
| GAA A20G A33G | 0.17 | – | – |

Random excerpt: five records from the list, in no set order.

| Variant | tRNA 3' processing efficiency [1] | tRNA Pol-III promoter activity (log2) [2] | tRNA 5' processing efficiency [3] |
| --- | --- | --- | --- |
| GAA A14C G17C T53A A58G | 0.17 | – | – |
| GTT A14C A58T | 0.25 | 3.93 | – |
| TTA T19G A20T G35A | 0.25 | 3.71 | – |
| GTT A14T T59C | 0.25 | 4.45 | – |
| TAA A14T A20G A58T | 0.4 | – | – |

Further entries

| Variant | tRNA 3' processing efficiency [1] | tRNA Pol-III promoter activity (log2) [2] | tRNA 5' processing efficiency [3] |
| --- | --- | --- | --- |
| GAA A14T G18A T19A T59A | 0.25 | – | – |
| GAA A14G T53A A58G T59G | 0.11 | – | – |
| AAA A14T T19G A58G | 0.32 | – | – |
| GTA T53G T59A | 0.2 | 3.67 | – |
| AAA A14G A20T T59C | 0.2 | – | – |
| ATG | 0.25 | 3.33 | – |
| ATC | 0.33 | 6.61 | – |
| ATT | 0.31 | 2.96 | – |
| GTT A58G T59C | 0.89 | 7.1 | – |
| GAA A20C G44A A58T | 0.25 | – | – |
| GAA A14G G18C T53G A58T | 0.5 | – | – |
| GTT G15C | 0.22 | 2.51 | – |
| GTT G15A | 0.5 | 2.36 | – |
| GTT G15C T19A | 0.11 | 6.11 | – |
| TTT G9A | 0.2 | 4.67 | – |
| AAA A14C G18A A58G | 0.25 | – | – |
| CAA A14G G17A A58T | 0.57 | – | – |
| GAA A14T A20C A33T A58G T59A | 0.25 | – | – |
| CTA T59A | 0.25 | 2.94 | – |
| GAA A14T T19A A58G T59G | 0.01 | – | – |
| GTT G15A G17T | 0.2 | 4.03 | – |
| GTT G15A G17C | 0.73 | 6.39 | – |

| Variant | tRNA 3' processing efficiency [1] | tRNA Pol-III promoter activity (log2) [2] | tRNA 5' processing efficiency [3] |
| --- | --- | --- | --- |
| GTA T19A A20T | 0.28 | 7.08 | – |
| GTA T19A A20C | 0.18 | 4.38 | – |
| GTA T19A A20G | 0.49 | 5.76 | – |
| GTA T19C T59C | 0.25 | 4.03 | – |
| CTA T19A A58C | 0.4 | 4.67 | – |
| GAA A14G G17A A58C T59C | 0.17 | – | – |
| AAA A14T T19G T59G | 0.5 | – | – |
| TAA A14T T54A A58G | 0.4 | – | – |
| TAA A14T A20T T53A T59C | 0.69 | – | – |
| ATA T53G A58G | 0.33 | 5.51 | – |
| GTG A20G A58T | 0.17 | 4.93 | – |
| GAA A14T G15C G17A A58C | 0.62 | – | – |
| CAA A14T G15C T19G | 0.36 | – | – |
| CAA A14C T19A A20C A58G | 0.25 | – | – |
| GAA A14T G18A T19C T54A | 0.62 | – | – |
| GTC A14G T59G | 0.4 | 5.25 | – |
| AAA A14G T19A T59G | 0.2 | – | – |
| GTA T19G A58G | 0.25 | 1.84 | – |
| GTA T19G A58T | 0.23 | 3.38 | – |
| GTA T19A A58G T59G | 0.33 | 6.62 | – |
| TAA A14T A20T T53A | 0.29 | – | – |
| CAA A14G G18C T19G T59G | 0.4 | – | – |

Limited to tRNA 5' processing efficiency [3] and tRNA 3' processing efficiency [1], for some of the entries so far:
Variant | tRNA 5' processing efficiency [3] | tRNA 3' processing efficiency [1]
GTC T19A | – | 0.5
GTA T8G G17T | – | 0.2
CAA A14T T19G A20T A58G | – | 0.17
